No constants are given. Whether binding was seen depends on the method and setting. In cells and extracts the contact can be indirect. Some binding calls cover weakened binding; strength is not graded here.
Target: Grb2 SH2 domain fused to GST (mouse) (UniProt Q60631)
Experiment: pull-down; 20 µg GST fusion protein bound to glutathione-sepharose; cleared lysates of parental and SLP65-deficient DG75 cells stimulated via the mIgM-BCR for three minutes; immunoblot; only the target purified

Amino acid sequences for entries named in this document (tags omitted). Residues count along the entry.
UniProt Q60631, residues 60-152: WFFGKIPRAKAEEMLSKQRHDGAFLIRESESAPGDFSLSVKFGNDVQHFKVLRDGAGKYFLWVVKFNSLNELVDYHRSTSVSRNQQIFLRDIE
UniProt P11912, residues 33-226: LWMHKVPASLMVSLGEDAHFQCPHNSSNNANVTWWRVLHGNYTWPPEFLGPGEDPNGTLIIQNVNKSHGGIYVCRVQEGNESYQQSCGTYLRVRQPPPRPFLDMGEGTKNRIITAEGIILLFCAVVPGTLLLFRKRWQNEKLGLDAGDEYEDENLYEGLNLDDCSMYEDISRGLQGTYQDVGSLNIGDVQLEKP
UniProt P15391, residues 20-556: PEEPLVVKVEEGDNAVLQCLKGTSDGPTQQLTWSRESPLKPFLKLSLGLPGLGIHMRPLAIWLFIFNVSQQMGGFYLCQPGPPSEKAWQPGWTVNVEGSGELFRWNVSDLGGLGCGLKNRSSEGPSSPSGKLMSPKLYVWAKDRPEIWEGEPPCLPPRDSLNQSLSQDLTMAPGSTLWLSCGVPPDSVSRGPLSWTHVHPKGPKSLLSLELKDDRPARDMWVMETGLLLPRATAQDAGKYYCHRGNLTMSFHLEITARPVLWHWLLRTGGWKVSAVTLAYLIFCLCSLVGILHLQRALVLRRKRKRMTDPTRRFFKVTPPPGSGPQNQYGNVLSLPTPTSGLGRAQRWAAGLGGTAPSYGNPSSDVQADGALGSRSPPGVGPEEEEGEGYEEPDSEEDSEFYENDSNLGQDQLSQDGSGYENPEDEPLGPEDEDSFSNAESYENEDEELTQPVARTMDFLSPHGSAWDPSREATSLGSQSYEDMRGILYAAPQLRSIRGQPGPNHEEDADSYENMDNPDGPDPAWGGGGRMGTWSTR

| binding | Substance |
| --- | --- |
| binds | Igα (CD79A) (from UniProt P11912 33-226) (receptor) |
| binds | B cell co-receptor CD19 (from UniProt P15391 20-556) |

From article PMC5844867
